Assay results as given in paper doi:10.1101/2025.05.21.655431.
The exact form of at least one protein or probe is not confirmed. For some assays here: A weaker result is weaker than the reference pair of the same experiment.

Amino acid sequences for entries named in this document (tags omitted). A change or cut given only in a name is not applied to a line headed by its entry.
UniProt Q9FGZ4: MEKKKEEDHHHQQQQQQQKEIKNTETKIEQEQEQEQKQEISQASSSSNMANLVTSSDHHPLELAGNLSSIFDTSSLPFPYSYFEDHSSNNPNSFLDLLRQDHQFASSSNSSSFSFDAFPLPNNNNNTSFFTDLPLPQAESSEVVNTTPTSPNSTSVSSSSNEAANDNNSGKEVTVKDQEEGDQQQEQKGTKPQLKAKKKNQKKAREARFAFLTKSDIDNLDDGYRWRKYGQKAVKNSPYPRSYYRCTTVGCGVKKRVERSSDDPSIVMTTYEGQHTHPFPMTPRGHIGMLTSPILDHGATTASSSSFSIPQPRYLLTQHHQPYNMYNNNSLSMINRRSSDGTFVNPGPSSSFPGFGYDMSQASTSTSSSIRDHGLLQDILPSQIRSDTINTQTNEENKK

Assays:
[1] = target: phospho-WRKY48 (MPK3-phosphorylated) (Arabidopsis thaliana) (UniProt Q9FGZ4); test: EMSA; conditions: MPK3-phosphorylated, significantly higher than unphosphorylated; residues 1-399
[2] = target: WRKY48 (Arabidopsis thaliana) (UniProt Q9FGZ4); test: EMSA; conditions: unphosphorylated, compared with MPK3-phosphorylated; residues 1-399

Sequence: TAAATCGCATCGTGACCGGTCATAAAAAGACACGTGTCGTCATCGCTATCCAAATAATTGACAAACTCGAAGCCGCCAAGGG (double strand) [CIPK6 promoter P1+P2]
- binding result [1]: binds
- binding result [2]: binds more weakly
